Measurements as given in PMC11837972.
These are yes or no findings as the source states them, for the method shown. For some of these results: Binding seen in cells or lysates may run through a third protein. Some binding calls cover weakened binding; strength is not graded here. For some of these results: Tags and fused reporters may be left off the sequences shown.

The chains behind the UniProt entries cited, without tags or fusion partners.
UniProt P45481: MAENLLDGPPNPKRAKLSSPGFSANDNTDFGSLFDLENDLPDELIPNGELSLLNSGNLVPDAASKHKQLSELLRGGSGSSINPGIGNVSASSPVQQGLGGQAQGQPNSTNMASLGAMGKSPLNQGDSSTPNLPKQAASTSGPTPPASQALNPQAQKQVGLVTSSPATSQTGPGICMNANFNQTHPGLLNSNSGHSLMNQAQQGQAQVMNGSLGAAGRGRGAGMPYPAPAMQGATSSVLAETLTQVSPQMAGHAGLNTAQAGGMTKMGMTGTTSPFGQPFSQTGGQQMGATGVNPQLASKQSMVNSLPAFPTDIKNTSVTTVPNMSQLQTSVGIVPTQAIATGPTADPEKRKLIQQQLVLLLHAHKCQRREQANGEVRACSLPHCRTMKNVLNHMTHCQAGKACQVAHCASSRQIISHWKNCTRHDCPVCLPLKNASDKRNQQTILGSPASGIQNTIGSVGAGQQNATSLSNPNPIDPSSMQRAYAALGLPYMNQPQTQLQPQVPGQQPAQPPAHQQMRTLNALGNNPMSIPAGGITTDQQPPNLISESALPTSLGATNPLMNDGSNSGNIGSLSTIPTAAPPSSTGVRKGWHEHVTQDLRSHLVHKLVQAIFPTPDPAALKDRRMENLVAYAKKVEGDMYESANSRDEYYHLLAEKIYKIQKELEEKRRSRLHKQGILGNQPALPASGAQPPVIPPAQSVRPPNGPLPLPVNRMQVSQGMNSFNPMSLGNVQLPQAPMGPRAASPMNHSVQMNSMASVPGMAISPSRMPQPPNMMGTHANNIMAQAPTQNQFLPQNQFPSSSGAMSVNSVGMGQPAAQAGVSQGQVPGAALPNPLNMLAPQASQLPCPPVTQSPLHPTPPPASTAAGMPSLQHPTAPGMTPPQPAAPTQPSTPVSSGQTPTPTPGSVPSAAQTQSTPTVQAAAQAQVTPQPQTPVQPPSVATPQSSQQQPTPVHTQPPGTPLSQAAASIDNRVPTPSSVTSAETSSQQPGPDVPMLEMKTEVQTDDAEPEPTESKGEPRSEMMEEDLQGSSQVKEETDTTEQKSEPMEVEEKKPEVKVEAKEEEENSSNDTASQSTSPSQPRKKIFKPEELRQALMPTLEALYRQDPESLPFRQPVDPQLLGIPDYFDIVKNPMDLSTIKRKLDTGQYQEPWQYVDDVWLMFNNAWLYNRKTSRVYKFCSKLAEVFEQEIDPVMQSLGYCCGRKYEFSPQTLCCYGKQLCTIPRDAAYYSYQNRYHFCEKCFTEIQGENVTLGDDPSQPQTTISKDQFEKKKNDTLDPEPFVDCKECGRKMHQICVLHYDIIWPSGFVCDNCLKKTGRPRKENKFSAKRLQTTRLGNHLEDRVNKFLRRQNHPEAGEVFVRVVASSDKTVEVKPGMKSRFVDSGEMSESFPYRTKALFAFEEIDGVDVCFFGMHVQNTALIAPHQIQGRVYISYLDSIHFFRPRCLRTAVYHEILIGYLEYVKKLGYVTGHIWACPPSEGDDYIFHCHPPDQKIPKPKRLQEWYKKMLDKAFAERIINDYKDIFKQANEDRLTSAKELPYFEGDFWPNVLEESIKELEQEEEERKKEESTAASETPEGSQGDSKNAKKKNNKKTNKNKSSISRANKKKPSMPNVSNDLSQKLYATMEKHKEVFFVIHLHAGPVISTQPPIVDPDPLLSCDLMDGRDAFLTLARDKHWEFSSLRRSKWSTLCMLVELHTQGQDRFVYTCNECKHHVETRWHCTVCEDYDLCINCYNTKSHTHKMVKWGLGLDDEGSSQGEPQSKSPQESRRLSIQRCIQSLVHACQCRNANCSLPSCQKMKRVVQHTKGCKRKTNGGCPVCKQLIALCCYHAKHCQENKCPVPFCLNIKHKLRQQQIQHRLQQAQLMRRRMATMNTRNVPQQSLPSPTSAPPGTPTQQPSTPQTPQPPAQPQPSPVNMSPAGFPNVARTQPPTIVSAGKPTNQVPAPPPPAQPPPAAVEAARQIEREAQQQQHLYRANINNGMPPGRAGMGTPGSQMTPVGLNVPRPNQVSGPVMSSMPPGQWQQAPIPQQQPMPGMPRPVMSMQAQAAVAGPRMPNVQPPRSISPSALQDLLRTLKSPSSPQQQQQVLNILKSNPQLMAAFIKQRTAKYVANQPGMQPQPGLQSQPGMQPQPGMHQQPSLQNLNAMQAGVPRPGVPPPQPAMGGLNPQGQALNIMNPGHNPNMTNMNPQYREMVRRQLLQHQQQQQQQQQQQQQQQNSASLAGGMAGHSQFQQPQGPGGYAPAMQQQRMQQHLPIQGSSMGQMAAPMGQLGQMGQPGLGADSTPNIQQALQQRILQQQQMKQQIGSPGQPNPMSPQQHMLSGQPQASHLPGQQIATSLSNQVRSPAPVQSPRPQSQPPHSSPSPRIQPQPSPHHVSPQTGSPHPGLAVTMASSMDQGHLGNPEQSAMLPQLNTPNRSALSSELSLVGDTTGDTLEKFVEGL

T1: IRF3, endogenous in MEFs (mouse (endogenous in MEFs)) (UniProt P70671)
T1 sequence: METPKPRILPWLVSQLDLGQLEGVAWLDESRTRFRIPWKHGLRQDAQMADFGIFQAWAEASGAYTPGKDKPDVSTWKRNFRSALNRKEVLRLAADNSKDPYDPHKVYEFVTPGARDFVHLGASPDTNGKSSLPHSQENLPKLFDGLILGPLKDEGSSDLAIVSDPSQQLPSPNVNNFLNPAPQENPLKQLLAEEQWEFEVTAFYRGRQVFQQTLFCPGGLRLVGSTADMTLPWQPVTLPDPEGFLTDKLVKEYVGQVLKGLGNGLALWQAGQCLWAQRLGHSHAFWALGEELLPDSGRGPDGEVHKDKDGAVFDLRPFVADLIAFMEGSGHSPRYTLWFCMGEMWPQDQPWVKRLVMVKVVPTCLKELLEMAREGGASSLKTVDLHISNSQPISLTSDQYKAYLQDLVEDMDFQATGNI

T2: HA-IRF3 (IFN regulatory factor 3) (UniProt Q14653)
T2 sequence: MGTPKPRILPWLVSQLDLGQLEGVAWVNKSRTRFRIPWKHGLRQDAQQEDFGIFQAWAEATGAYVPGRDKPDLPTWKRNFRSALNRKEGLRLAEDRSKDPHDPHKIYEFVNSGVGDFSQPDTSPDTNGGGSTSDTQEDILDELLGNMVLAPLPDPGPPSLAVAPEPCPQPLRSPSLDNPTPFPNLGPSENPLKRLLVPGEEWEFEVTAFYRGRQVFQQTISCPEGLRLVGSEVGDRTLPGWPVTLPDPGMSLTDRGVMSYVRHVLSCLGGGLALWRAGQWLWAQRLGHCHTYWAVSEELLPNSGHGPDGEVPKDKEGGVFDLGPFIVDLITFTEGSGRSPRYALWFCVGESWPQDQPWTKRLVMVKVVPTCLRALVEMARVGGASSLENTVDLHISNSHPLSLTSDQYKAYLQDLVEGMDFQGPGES

T3: IRF3, endogenous in MEFs (mouse (endogenous in MEFs)), P70671
T3 chain: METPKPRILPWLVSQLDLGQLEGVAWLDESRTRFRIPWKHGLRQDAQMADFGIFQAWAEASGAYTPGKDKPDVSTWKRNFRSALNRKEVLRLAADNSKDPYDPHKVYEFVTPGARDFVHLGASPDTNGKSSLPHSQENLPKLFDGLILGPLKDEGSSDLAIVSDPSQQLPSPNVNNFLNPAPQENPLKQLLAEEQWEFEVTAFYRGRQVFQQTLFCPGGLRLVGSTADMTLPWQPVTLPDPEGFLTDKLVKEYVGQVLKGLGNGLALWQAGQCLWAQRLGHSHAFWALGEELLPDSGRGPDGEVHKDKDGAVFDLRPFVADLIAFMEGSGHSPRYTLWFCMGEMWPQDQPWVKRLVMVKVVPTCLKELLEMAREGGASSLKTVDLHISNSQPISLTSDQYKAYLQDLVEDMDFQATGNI


What was measured:
[1] = biological target: T1, IRF3, endogenous in MEFs (mouse (endogenous in MEFs)); test: co-IP; endogenous proteins; WT and Parp7-/- MEFs stimulated with DMXAA (10 μg/ml) for the indicated time points; IP with IRF3 antibody; blotted
[2] = biological target: T2, HA-IRF3 (IFN regulatory factor 3); test: co-IP; HEK293T co-transfected with HA-IRF3 or HA-IRF3-5D and EGFP-PARP7 constructs; IP with HA antibody on Protein G or A Dynabeads overnight at 4°C; IP lysis buffer 20 mM Tris-HCl pH 7.4, 0.5% Nonidet-P40, 150 mM NaCl, 1 μM veliparib; blotted
[3] = biological target: T3, IRF3, endogenous in MEFs (mouse …); test: native gel or EMSA; Native-PAGE of lysates of WT and Parp7-/- MEFs stimulated with DMXAA (10 μg/ml); inner buffer with 1% sodium deoxycholate; blotted for IRF3; details: remark: other sources report otherwise

binding [2]	Molecule	other results
–	CREB-binding protein (CBP), endogenous in MEFs (from UniProt P45481 1-2441)	binding [1]: binds
binds	EGFP-PARP7 (enzyme, UniProt Q7Z3E1 1-657) MEMETTEPEPDCVVQPPSPPDDFSCQMRLSEKITPLKTCFKKKDQKRLGTGTLRSLRPILNTLLESGSLDGVFRSRNQSTDENSLHEPMMKKAMEINSSCPPAENNMSVLIPDRTNVGDQIPEAHPSTEAPERVVPIQDHSFPSETLSGTVADSTPAHFQTDLLHPVSSDVPTSPDCLDKVIDYVPGIFQENSFTIQYILDTSDKLSTELFQDKSEEASLDLVFELVNQLQYHTHQENGIEICMDFLQGTCIYGRDCLKHHTVLPYHWQIKRTTTQKWQSVFNDSQEHLERFYCNPENDRMRMKYGGQEFWADLNAMNVYETTEFDQLRRLSTPPSSNVNSIYHTVWKFFCRDHFGWREYPESVIRLIEEANSRGLKEVRFMMWNNHYILHNSFFRREIKRRPLFRSCFILLPYLQTLGGVPTQAPPPLEATSSSQIICPDGVTSANFYPETWVYMHPSQDFIQVPVSAEDKSYRIIYNLFHKTVPEFKYRILQILRVQNQFLWEKYKRKKEYMNRKMFGRDRIINERHLFHGTSQDVVDGICKHNFDPRVCGKHATMFGQGSYFAKKASYSHNFSKKSSKGVHFMFLAKVLTGRYTMGSHGMRRPPPVNPGSVTSDLYDSCVDNFFEPQIFVIFNDDQSYPYFVIQYEEVSNTVSI	–
binds	EGFP-PARP7-H532A (enzyme, UniProt Q7Z3E1 1-657) MEMETTEPEPDCVVQPPSPPDDFSCQMRLSEKITPLKTCFKKKDQKRLGTGTLRSLRPILNTLLESGSLDGVFRSRNQSTDENSLHEPMMKKAMEINSSCPPAENNMSVLIPDRTNVGDQIPEAHPSTEAPERVVPIQDHSFPSETLSGTVADSTPAHFQTDLLHPVSSDVPTSPDCLDKVIDYVPGIFQENSFTIQYILDTSDKLSTELFQDKSEEASLDLVFELVNQLQYHTHQENGIEICMDFLQGTCIYGRDCLKHHTVLPYHWQIKRTTTQKWQSVFNDSQEHLERFYCNPENDRMRMKYGGQEFWADLNAMNVYETTEFDQLRRLSTPPSSNVNSIYHTVWKFFCRDHFGWREYPESVIRLIEEANSRGLKEVRFMMWNNHYILHNSFFRREIKRRPLFRSCFILLPYLQTLGGVPTQAPPPLEATSSSQIICPDGVTSANFYPETWVYMHPSQDFIQVPVSAEDKSYRIIYNLFHKTVPEFKYRILQILRVQNQFLWEKYKRKKEYMNRKMFGRDRIINERHLFAGTSQDVVDGICKHNFDPRVCGKHATMFGQGSYFAKKASYSHNFSKKSSKGVHFMFLAKVLTGRYTMGSHGMRRPPPVNPGSVTSDLYDSCVDNFFEPQIFVIFNDDQSYPYFVIQYEEVSNTVSI	–
–	IRF3, endogenous in MEFs, P70671 1-419 (protein) METPKPRILPWLVSQLDLGQLEGVAWLDESRTRFRIPWKHGLRQDAQMADFGIFQAWAEASGAYTPGKDKPDVSTWKRNFRSALNRKEVLRLAADNSKDPYDPHKVYEFVTPGARDFVHLGASPDTNGKSSLPHSQENLPKLFDGLILGPLKDEGSSDLAIVSDPSQQLPSPNVNNFLNPAPQENPLKQLLAEEQWEFEVTAFYRGRQVFQQTLFCPGGLRLVGSTADMTLPWQPVTLPDPEGFLTDKLVKEYVGQVLKGLGNGLALWQAGQCLWAQRLGHSHAFWALGEELLPDSGRGPDGEVHKDKDGAVFDLRPFVADLIAFMEGSGHSPRYTLWFCMGEMWPQDQPWVKRLVMVKVVPTCLKELLEMAREGGASSLKTVDLHISNSQPISLTSDQYKAYLQDLVEDMDFQATGNI	binding [3]: binds
